Test results from patent US20240315283A1, “ISOFUCOSTEROL A KEY NUTRIENT FOR PHYTOSTEROL EATING ANIMALS SUCH AS POLLEN EATING AND ALGAE-EATING AND PLANKTON EATING ORGANISMS” (APIX BIOSCIENCES, priority 2021, published 2024).

System: Bumblebee worker
Experiment: Isofucosterol composition of bumblebee workers
Design: species or system Bombus terrestris

C/C=C(/CC[C@@H](C)[C@H]1CC[C@H]2[C@@H]3CC=C4C[C@@H](O)CC[C@]4(C)[C@H]3CC[C@]12C)C(C)C [isofucosterol, Isofucosterol]
Isofucosterol (% total) (Bumblebee worker, percentage of total bee-relevant phytosterols): 50.15 % total | isofucosterol share of corporeal sterols (bumblebees such as Bombus terrestris): 40-55% | isofucosterol as share of total dry weight (total dry weight of a bumblebee): 0.10-0.25%
